Our source for the binding values is article PMC11852966.

These are yes or no findings as the source states them, for the method shown. Binding seen in cells or lysates may run through a third protein. These calls come from enrichment with a bait or labelling near it, and not all partners need be listed. Where a sequence is shown, tags or fusion partners need not be part of it.

This assay has as its target T1, GBP5-HA (UniProt Q96PP8).
T1 sequence: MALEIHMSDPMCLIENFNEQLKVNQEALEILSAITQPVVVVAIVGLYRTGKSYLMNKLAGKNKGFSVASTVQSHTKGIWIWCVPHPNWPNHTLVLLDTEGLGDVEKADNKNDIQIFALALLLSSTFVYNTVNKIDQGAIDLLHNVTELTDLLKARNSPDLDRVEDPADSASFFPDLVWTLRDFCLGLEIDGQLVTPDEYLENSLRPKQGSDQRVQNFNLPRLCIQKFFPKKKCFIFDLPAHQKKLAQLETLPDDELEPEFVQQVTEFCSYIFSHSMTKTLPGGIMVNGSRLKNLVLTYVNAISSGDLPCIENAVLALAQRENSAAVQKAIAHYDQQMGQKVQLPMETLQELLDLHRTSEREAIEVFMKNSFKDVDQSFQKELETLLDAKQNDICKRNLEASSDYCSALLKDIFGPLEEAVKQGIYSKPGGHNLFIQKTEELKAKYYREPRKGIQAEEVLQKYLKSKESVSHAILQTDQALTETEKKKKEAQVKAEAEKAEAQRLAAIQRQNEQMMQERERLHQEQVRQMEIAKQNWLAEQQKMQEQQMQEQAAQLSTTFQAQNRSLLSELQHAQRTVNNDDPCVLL
The experiment in a line: affinity purification with mass spectrometry; HEK293T cells transfected with GBP5-HA for 48 hours; co-IP with anti-HA antibody and protein G agarose; eluate analysed by MS; compared with empty vector VR1012.

B1: KRT9 (endogenous, HEK293T) (protein, UniProt P35527 1-623)
chain: MSCRQFSSSYLSRSGGGGGGGLGSGGSIRSSYSRFSSSGGGGGGGRFSSSSGYGGGSSRVCGRGGGGSFGYSYGGGSGGGFSASSLGGGFGGGSRGFGGASGGGYSSSGGFGGGFGGGSGGGFGGGYGSGFGGFGGFGGGAGGGDGGILTANEKSTMQELNSRLASYLDKVQALEEANNDLENKIQDWYDKKGPAAIQKNYSPYYNTIDDLKDQIVDLTVGNNKTLLDIDNTRMTLDDFRIKFEMEQNLRQGVDADINGLRQVLDNLTMEKSDLEMQYETLQEELMALKKNHKEEMSQLTGQNSGDVNVEINVAPGKDLTKTLNDMRQEYEQLIAKNRKDIENQYETQITQIEHEVSSSGQEVQSSAKEVTQLRHGVQELEIELQSQLSKKAALEKSLEDTKNRYCGQLQMIQEQISNLEAQITDVRQEIECQNQEYSLLLSIKMRLEKEIETYHNLLEGGQEDFESSGAGKIGLGGRGGSGGSYGRGSRGGSGGSYGGGGSGGGYGGGSGSRGGSGGSYGGGSGSGGGSGGGYGGGSGGGHSGGSGGGHSGGSGGNYGGGSGSGGGSGGGYGGGSGSRGGSGGSHGGGSGFGGESGGSYGGGEEASGSGGGYGGGSGKSSHS
Consider B1, for which the binding entry is given as “binds”.
